The values below come from publication PMC5564724.

No constants are given. Whether binding was seen depends on the method and setting. Binding seen in cells or lysates may run through a third protein. A result given as binding can be weak or reduced; the word gives no strength.

This assay deals with T1, p130cas (human (endogenous in HCT116)) (UniProt P56945).
T1 sequence: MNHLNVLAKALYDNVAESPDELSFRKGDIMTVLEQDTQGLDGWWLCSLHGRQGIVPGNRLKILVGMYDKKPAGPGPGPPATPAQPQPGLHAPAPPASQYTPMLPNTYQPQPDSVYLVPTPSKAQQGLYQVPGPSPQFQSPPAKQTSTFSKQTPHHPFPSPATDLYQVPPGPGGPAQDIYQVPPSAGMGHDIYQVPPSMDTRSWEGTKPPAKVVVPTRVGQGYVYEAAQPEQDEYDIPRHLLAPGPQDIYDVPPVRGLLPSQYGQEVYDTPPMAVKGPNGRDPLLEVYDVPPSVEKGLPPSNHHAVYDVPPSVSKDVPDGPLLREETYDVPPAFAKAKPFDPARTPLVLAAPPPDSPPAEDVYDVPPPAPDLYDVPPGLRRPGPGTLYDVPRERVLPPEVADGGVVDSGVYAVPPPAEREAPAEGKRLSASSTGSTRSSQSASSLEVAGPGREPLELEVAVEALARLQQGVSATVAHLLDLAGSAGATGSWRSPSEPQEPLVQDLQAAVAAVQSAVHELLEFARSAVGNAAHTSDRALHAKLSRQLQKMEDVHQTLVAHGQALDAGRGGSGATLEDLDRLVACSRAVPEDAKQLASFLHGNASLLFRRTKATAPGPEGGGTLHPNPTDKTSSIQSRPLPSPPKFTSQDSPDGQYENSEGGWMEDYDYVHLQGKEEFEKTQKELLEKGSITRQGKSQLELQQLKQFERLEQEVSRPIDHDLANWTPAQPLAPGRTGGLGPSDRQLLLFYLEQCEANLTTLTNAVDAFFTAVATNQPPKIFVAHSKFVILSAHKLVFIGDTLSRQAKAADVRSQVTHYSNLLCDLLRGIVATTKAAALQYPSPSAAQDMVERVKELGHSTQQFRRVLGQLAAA
The assay is described as follows: co-IP; HCT116 parental or paxillin Y88F knock-in cells, starved overnight and stimulated with 30 ng/ml PDGF-AA for one hour; Flag lysis buffer (50 mM Tris-HCl pH 7.5, 1 mM EDTA, 150 mM NaCl, 1% Triton X-100); lysates immunoprecipitated with anti-p130cas antibody, blotted for p85.

Turning to “p85 regulatory subunit of PI3-Kinase (human (endogenous in HCT116))”, the binding entry is recorded as “binds”.
